PubChem BioAssay AID1224830 – NIAID | 2016

- Purpose: 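Genes whose knock-down alters the TNF-alpha reporter response to LPS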 (primary screen)
- System: human THP-1 monocytic leukaemia cells, TNF dual-luciferase reporter clone, PMA-differentiated to macrophage-like cells
- Reagent: siRNA pool against human genes, 50 nM
- Duration: LPS for 4 h, given about 3 days after siRNA transfection
- Conditions: bacterial LPS (TLR4 ligand), 10 ng/ml
- Detection: 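TNF firefly reporter luminescence divided by renilla, normalised to the plate median, then turned into a robust z-score for each replicate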
- Reading the numbers: TNF reporter robust z-score: higher = stronger TNF reporter response to LPS
- Call rule: 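a well is active when its z-score exceeds 2.8 or falls below -1.5; control wells carry no call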
The whole screen tested about 18,000 reagents; shown is an unselected part. About 2,900 of all reagents (16%) count as active. 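Calls are made per well; low scores hint the gene aids the LPS response, high scores that it dampens it.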 Repeated entries: four replicate wells of each siRNA pool.

The opening 3 entries, ahead of the listing:
CDK18 (cyclin dependent kinase 18)
- TNF reporter robust z-score: 0.36
- Outcome: inactive

CDK18 (cyclin dependent kinase 18)
- TNF reporter robust z-score: -0.64
- Outcome: inactive

CDK18 (cyclin dependent kinase 18)
- TNF reporter robust z-score: 0.27
- Outcome: inactive

The listing, from the start:
CDK18 (cyclin dependent kinase 18)
- TNF reporter robust z-score: 0.36
- Outcome: inactive

CDK18 (cyclin dependent kinase 18)
- TNF reporter robust z-score: -0.64
- Outcome: inactive

CDK18 (cyclin dependent kinase 18)
- TNF reporter robust z-score: 0.27
- Outcome: inactive

CDK18 (cyclin dependent kinase 18)
- TNF reporter robust z-score: 0.46
- Outcome: inactive

AP1G1 (adaptor related protein complex 1 subunit gamma 1)
- TNF reporter robust z-score: -0.03
- Outcome: inactive

AP1G1 (adaptor related protein complex 1 subunit gamma 1)
- TNF reporter robust z-score: 1.25
- Outcome: inactive

AP1G1 (adaptor related protein complex 1 subunit gamma 1)
- TNF reporter robust z-score: -0.81
- Outcome: inactive

AP1G1 (adaptor related protein complex 1 subunit gamma 1)
- TNF reporter robust z-score: -0.12
- Outcome: inactive

ARMCX1 (armadillo repeat containing X-linked 1)
- TNF reporter robust z-score: 0.39
- Outcome: inactive

ARMCX1 (armadillo repeat containing X-linked 1)
- TNF reporter robust z-score: 0.82
- Outcome: inactive

ARMCX1 (armadillo repeat containing X-linked 1)
- TNF reporter robust z-score: 1.46
- Outcome: inactive

ARMCX1 (armadillo repeat containing X-linked 1)
- TNF reporter robust z-score: 1.22
- Outcome: inactive

ATF6 (activating transcription factor 6)
- TNF reporter robust z-score: 0.23
- Outcome: inactive

ATF6 (activating transcription factor 6)
- TNF reporter robust z-score: 0.4
- Outcome: inactive

ATF6 (activating transcription factor 6)
- TNF reporter robust z-score: 1.43
- Outcome: inactive

SSBP4 (single stranded DNA binding protein 4)
- TNF reporter robust z-score: -0.01
- Outcome: inactive

SSBP4 (single stranded DNA binding protein 4)
- TNF reporter robust z-score: 0.27
- Outcome: inactive

SSBP4 (single stranded DNA binding protein 4)
- TNF reporter robust z-score: -0.25
- Outcome: inactive

SSBP4 (single stranded DNA binding protein 4)
- TNF reporter robust z-score: -0.77
- Outcome: inactive

CTAGE6 (CTAGE family member 6)
- TNF reporter robust z-score: 0.56
- Outcome: inactive

CTAGE6 (CTAGE family member 6)
- TNF reporter robust z-score: 1
- Outcome: inactive

CTAGE6 (CTAGE family member 6)
- TNF reporter robust z-score: 0.41
- Outcome: inactive

CTAGE6 (CTAGE family member 6)
- TNF reporter robust z-score: 0.84
- Outcome: inactive

IL17C (interleukin 17C)
- TNF reporter robust z-score: -0.91
- Outcome: inactive

IL17C (interleukin 17C)
- TNF reporter robust z-score: -0.4
- Outcome: inactive

IL17C (interleukin 17C)
- TNF reporter robust z-score: 0.47
- Outcome: inactive

IL17C (interleukin 17C)
- TNF reporter robust z-score: 1.33
- Outcome: inactive

STX19 (syntaxin 19)
- TNF reporter robust z-score: -1.24
- Outcome: inactive

STX19 (syntaxin 19)
- TNF reporter robust z-score: -0.38
- Outcome: inactive

STX19 (syntaxin 19)
- TNF reporter robust z-score: -0.83
- Outcome: inactive

STX19 (syntaxin 19)
- TNF reporter robust z-score: -0.22
- Outcome: inactive

MPC1
- TNF reporter robust z-score: 0.87
- Outcome: inactive

MPC1
- TNF reporter robust z-score: 3.47
- Outcome: active

MPC1
- TNF reporter robust z-score: -0.36
- Outcome: inactive

MPC1
- TNF reporter robust z-score: 0.05
- Outcome: inactive
